Experimental data from patent US8461328B2, “Tricyclic heterocyclic compounds, compositions and methods of use thereof” (Genentech, Inc., priority 2010, dated 2013).
Some of these results come from one statement about several compounds together.

By UniProt entry, the sequences of proteins in these tests, tags left out. Residues count along the entry.
UniProt P23458, 852-1154: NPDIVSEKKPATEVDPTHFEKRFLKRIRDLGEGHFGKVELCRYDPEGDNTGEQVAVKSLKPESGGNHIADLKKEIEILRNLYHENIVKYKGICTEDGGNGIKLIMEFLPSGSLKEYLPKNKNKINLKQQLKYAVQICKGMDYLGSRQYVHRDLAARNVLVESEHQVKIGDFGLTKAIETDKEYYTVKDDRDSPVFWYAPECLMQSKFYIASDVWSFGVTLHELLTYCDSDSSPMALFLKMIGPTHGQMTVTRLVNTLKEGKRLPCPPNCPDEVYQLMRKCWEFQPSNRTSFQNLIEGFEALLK

Target: T1, human JAK1 kinase domain (Homo sapiens, UniProt P23458)
T1 construct: made in house; host or cells: SF9 insect cells (baculovirus)
Test: JAK1 inhibition assay (Example B), Caliper LabChip peptide phosphorylation
Assay type: biochemical
Conditions: 1.5 nM JAK1, 25 μM ATP, Morrison tight binding model; read-out: Ki in a JAK1 kinase activity assay (Example B)

Row | Compound | Ki [nM]
1 | Cc1nc(CN2CCC(n3c([C@@H](C)O)nc4cnc5[nH]ccc5c43)CC2)c[nH]1 [Example 902, (R)-1-{1-[1-(2-Methyl-1H-imidazol-4-ylmethyl)-piperidin-4-yl]-1,6-dihydro-1,3,5,6-tetraaza-as-indacen-2-yl}-ethanol] | < 500
2 | Cc1nc(CN2CCC(n3c([C@@H](C)O)nc4cnc5[nH]ccc5c43)CC2)c(C)o1 [Example 903, (R)-1-{1-[1-(2,5-Dimethyl-oxazol-4-ylmethyl)-piperidin-4-yl]-1,6-dihydro-1,3,5,6-tetraaza-as-indacen-2-yl}-ethanol] | < 500
3 | CC(O)c1nc2cnc3[nH]ccc3c2n1C1CC2CCC1O2 (stereo not drawn) [Example 906, 1-[1-(7-Oxa-bicyclo[2.2.1]hept-2-yl)-1,6-dihydro-1,3,5,6-tetraaza-as-indacen-2-yl]-ethanol] | < 500
4 | CCN1CCC(n2c(CCNC(=O)OC)nc3cnc4[nH]ccc4c32)C(F)(F)C1 (stereo not drawn) [Example 908, {2-[1-(1-Ethyl-3,3-difluoro-piperidin-4-yl)-1,6-dihydro-1,3,5,6-tetraaza-as-indacen-2-yl]-ethyl}-carbamic acid methyl ester] | < 500
5 | CCN1CC[C@@H](n2c(CNS(C)(=O)=O)nc3cnc4[nH]ccc4c32)[C@@H](F)C1 [Example 909, N-[1-((3S,4R)-1-Ethyl-3-fluoro-piperidin-4-yl)-1,6-dihydro-1,3,5,6-tetraaza-as-indacen-2-ylmethyl]-methanesulfonamide] | < 500
6 | Cc1nc2cnc3[nH]ccc3c2n1C1CNCCOC1 (stereo not drawn) [Example 910, 2-Methyl-1-[1,4]oxazepan-6-yl-1,6-dihydro-1,3,5,6-tetraaza-as-indacene] | < 500
7 | Cc1cc(CN2CCC(n3c(C(C)O)nc4cnc5[nH]ccc5c43)C(F)C2)no1 (stereo not drawn) [Example 911, 1-{1-[3-Fluoro-1-(5-methyl-isoxazol-3-ylmethyl)-piperidin-4-yl]-1,6-dihydro-1,3,5,6-tetraaza-as-indacen-2-yl}-ethanol] | < 500
8 | Cc1noc(CN2CCC(n3c(C(C)O)nc4cnc5[nH]ccc5c43)C(F)C2)n1 (stereo not drawn) [Example 912, 1-{1-[3-Fluoro-1-(3-methyl-[1,2,4]oxadiazol-5-ylmethyl)-piperidin-4-yl]-1,6-dihydro-1,3,5,6-tetraaza-as-indacen-2-yl}-ethanol] | < 500
9 | CCN1CCC(n2c(CNS(C)(=O)=O)nc3cnc4[nH]ccc4c32)C(F)(F)C1 (stereo not drawn) [Example 915, N-[1-(1-Ethyl-3,3-difluoro-piperidin-4-yl)-1,6-dihydro-1,3,5,6-tetraaza-as-indacen-2-ylmethyl]-methanesulfonamide] | < 500
10 | C[C@@H](O)c1nc2cnc3[nH]ccc3c2n1C1CCN(CC(F)F)CC1 [Example 916, (R)-1-{1-[1-(2,2-Difluoro-ethyl)-piperidin-4-yl]-1,6-dihydro-1,3,5,6-tetraaza-as-indacen-2-yl}-ethanol] | < 500
11 | CC(O)c1nc2cnc3[nH]ccc3c2n1C1CC2CCC(C1)N2 (stereo not drawn) [Example 919, 1-[1-(8-Aza-bicyclo[3.2.1]oct-3-yl)-1,6-dihydro-1,3,5,6-tetraaza-as-indacen-2-yl]-ethanol] | < 500
12 | CC(=O)NCc1nc2cnc3[nH]ccc3c2n1C1CCN(CC(F)(F)F)CC1 [Example 920, N-{1-[1-(2,2,2-Trifluoro-ethyl)-piperidin-4-yl]-1,6-dihydro-1,3,5,6-tetraaza-as-indacen-2-ylmethyl}-acetamide] | < 500
13 | CC(=O)NCc1nc2cnc3[nH]ccc3c2n1C1CCN(CCF)CC1 [Example 921, N-{1-[1-(2-Fluoro-ethyl)-piperidin-4-yl]-1,6-dihydro-1,3,5,6-tetraaza-as-indacen-2-ylmethyl}-acetamide] | < 500
14 | O=S1(=O)CCCN1CCc1nc2cnc3[nH]ccc3c2n1C1CCCCC1 [Example 922, 1-Cyclohyl-2-[2-(1,1-dioxo-1-isothiazolidin-2-yl)-ethyl]-1,6-dihydro-1,3,5,6-tetraaza-as-indacene] | < 500
15 | C[C@@H](O)c1nc2cnc3[nH]ccc3c2n1C1CCN(Cc2ncco2)CC1 [Example 923, (R)-1-[1-(1-Oxazol-2-ylmethyl-piperidin-4-yl)-1,6-dihydro-1,3,5,6-tetraaza-as-indacen-2-yl]-ethanol] | < 500
16 | O=C(NCc1nc2cnc3[nH]ccc3c2n1C1CCCCC1)C1CCC1 [Example 924, Cyclobutanecarboxylic acid (1-cyclohyl-1,6-dihydro-1,3,5,6-tetraaza-as-indacen-2-ylmethyl)-amide] | < 500
17 | CS(=O)(=O)NCc1nc2cnc3[nH]ccc3c2n1C1CC2CCC1O2 (stereo not drawn) [Example 925, N-[1-(7-Oxa-bicyclo[2.2.1]hept-2-yl)-1,6-dihydro-1,3,5,6-tetraaza-as-indacen-2-ylmethyl]-methanesulfonamide] | < 500
18 | C[C@@H](O)c1nc2cnc3[nH]ccc3c2n1[C@H]1CCNC1 [Example 926, (R)-1-((S)-1-Pyrrolidin-3-yl-1,6-dihydro-1,3,5,6-tetraaza-as-indacen-2-yl)-ethanol] | < 500
19 | Cc1nc2cnc3[nH]ccc3c2n1C1CN2CCC1CC2 (stereo not drawn) [Example 928, 1-(1-Aza-bicyclo[2.2.2]oct-3-yl)-2-methyl-1,6-dihydro-1,3,5,6-tetraaza-as-indacene] | < 500
20 | COC(=O)N1CCC(n2c([C@@H](C)O)nc3cnc4[nH]ccc4c32)CC1 [Example 929, 4-[2-((R)-1-Hydroxy-ethyl)-6H-1,3,5,6-tetraaza-as-indacen-1-yl]-piperidine-1-carboxylic acid methyl ester] | < 500
21 | C[C@@H](O)c1nc2cnc3[nH]ccc3c2n1[C@H]1CCN(S(C)(=O)=O)C1 [Example 930, (R)-1-[1-((S)-1-Methanesulfonyl-pyrrolidin-3-yl)-1,6-dihydro-1,3,5,6-tetraaza-as-indacen-2-yl]-ethanol] | < 500
22 | CCOC(=O)N1CC[C@H](n2c([C@@H](C)O)nc3cnc4[nH]ccc4c32)C1 [Example 931, (S)-3-[2-((R)-1-Hydroxy-ethyl)-6H-1,3,5,6-tetraaza-as-indacen-1-yl]-pyrrolidine-1-carboxylic acid ethyl ester] | < 500
23 | OC1CCN(Cc2nc3cnc4[nH]ccc4c3n2C2CCCCC2)CC1 [Example 932, 1-(1-Cyclohyl-1,6-dihydro-1,3,5,6-tetraaza-as-indacen-2-ylmethyl)-piperidin-4-ol] | < 500
24 | CC(O)c1nc2cnc3[nH]ccc3c2n1C1CCN(Cc2cnco2)CC1F (stereo not drawn) [Example 933, 1-[1-(3-Fluoro-1-oxazol-5-ylmethyl-piperidin-4-yl)-1,6-dihydro-1,3,5,6-tetraaza-as-indacen-2-yl]-ethanol] | < 500
25 | CC(O)CN1CCC(n2c(C(C)O)nc3cnc4[nH]ccc4c32)CC1 (stereo not drawn) [Example 934, 1-{4-[2-(1-Hydroxy-ethyl)-6H-1,3,5,6-tetraaza-as-indacen-1-yl]-piperidin-1-yl}-propan-2-ol] | < 500
26 | Cc1noc(CN2CC[C@H](n3c([C@@H](C)O)nc4cnc5[nH]ccc5c43)C2)n1 [Example 935, (R)-1-{1-[(S)-1-(3-Methyl-[1,2,4]oxadiazol-5-ylmethyl)-pyrrolidin-3-yl]-1,6-dihydro-1,3,5,6-tetraaza-as-indacen-2-yl}-ethanol] | < 500
27 | CC(O)c1nc2cnc3[nH]ccc3c2n1C1CC2CCC1O2 (stereo not drawn) [Example 938, 1-[1-(7-Oxa-bicyclo[2.2.1]hept-2-yl)-1,6-dihydro-1,3,5,6-tetraaza-as-indacen-2-yl]-ethanol] | < 500
